The values below come from paper PMC9226498, “Structural basis for interaction between CLAMP and MSL2 proteins involved in the specific recruitment of the dosage compensation complex in Drosophila” (Nucleic Acids Research, 2022).

In experiment [1] the target is T1, MSL2^618–655 (Drosophila melanogaster) (UniProt P50534).
T1 sequence: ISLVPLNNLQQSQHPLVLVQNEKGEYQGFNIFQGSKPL
In words: NMR titration; stable isotope-labeled MSL2 618–655 titrated with unlabeled CLAMP 40–153 (or CLAMP 41–153 L139A/K146E); chemical shift perturbation, fast exchange; 25°C; both purified.

Experiment [2] addresses T2, CLAMP^40–153 (Drosophila melanogaster, UniProt Q9V9N4 40-153).
T2 construct: Tags and their cleavage are told only in the Supplementary Information; source: E. coli BL21 (DE3), purified (IMAC, anion-exchange chromatography)
T2 sequence (looked up): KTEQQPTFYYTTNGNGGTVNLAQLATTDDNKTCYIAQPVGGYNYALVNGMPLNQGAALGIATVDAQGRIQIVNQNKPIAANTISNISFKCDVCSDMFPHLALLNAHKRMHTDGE
In words: NMR relaxation; CLAMP 40–153 alone, in vitro; both purified.

For experiment [3], the target named is T2, CLAMP^40–153. The experiment is described as follows: NMR titration; 15N-labeled CLAMP 40–153 titrated with an excess of unlabeled MSL2 618–655; chemical shift perturbation; 25°C; both purified.
Experiment [4] concerns the target T3, GST-tagged MSL2^618–655 (Drosophila melanogaster) (UniProt P50534).
T3 sequence: T1 sequence
The experiment is described as follows: pull-down; GST-pulldown: GST-tagged MSL2 618–655 and 6xHis-thioredoxin-tagged CLAMP 1–153; performed as described in ref. 12.

Experiment [5] has as its target T4, full-length MSL2 (GAL4 fusion, yeast two-hybrid) (Drosophila melanogaster) (UniProt P50534).
T4 sequence: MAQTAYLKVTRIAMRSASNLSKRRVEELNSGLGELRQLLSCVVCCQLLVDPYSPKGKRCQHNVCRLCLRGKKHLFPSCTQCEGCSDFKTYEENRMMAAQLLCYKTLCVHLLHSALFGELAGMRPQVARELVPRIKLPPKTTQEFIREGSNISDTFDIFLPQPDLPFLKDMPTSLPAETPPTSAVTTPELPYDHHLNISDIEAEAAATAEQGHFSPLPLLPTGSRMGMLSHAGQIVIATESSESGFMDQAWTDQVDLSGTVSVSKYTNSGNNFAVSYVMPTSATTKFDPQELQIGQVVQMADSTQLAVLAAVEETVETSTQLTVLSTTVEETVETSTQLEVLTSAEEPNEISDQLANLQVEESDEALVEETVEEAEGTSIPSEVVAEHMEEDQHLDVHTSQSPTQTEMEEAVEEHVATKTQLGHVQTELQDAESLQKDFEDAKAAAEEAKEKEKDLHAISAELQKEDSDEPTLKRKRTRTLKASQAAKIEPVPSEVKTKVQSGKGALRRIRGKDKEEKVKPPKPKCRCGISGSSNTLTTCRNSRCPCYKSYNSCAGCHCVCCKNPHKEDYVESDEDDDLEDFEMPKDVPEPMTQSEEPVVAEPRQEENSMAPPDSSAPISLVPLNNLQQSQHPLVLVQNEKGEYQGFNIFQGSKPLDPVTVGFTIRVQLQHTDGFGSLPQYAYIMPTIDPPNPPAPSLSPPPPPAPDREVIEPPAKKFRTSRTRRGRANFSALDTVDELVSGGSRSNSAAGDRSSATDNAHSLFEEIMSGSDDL
In words: two-hybrid; GAL4 DNA-binding and activation domain fusions (pGBT9, pGAD424) in yeast strain pJ69-4A; growth on media without tryptophan, leucine, histidine and adenine, 30°C.

The target in experiment [6] is T5, full-length CLAMP (GAL4 fusion, yeast two-hybrid) (Drosophila melanogaster) (UniProt Q9V9N4).
T5 sequence: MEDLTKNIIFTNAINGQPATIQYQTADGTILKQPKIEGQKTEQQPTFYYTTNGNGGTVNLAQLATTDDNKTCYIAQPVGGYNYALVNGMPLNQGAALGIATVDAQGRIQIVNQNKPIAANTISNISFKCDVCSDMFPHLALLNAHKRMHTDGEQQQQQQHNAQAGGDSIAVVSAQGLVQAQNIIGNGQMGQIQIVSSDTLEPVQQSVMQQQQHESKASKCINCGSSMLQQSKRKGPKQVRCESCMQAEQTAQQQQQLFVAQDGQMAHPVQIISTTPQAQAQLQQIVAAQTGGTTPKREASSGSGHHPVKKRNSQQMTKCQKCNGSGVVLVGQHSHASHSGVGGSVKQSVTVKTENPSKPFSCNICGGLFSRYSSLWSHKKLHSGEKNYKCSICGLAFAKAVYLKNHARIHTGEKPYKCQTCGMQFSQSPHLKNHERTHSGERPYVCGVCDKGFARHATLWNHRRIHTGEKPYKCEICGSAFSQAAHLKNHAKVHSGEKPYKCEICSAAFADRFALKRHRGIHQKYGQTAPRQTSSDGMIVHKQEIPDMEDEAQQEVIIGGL
Described as above.

The target of experiment [7] is T6, GST-tagged MSL2^618–655 Y643A (Drosophila melanogaster) (UniProt P50534).
T6 sequence: T1 sequence with Y26A
The experiment is described as follows: pull-down; GST-pulldown: GST-tagged MSL2 618–655 and 6xHis-thioredoxin-tagged CLAMP 1–153; performed as described in ref. 12.

Experiment [8] concerns the target T7, GST-tagged MSL2^618–655 H631A (Drosophila melanogaster) (UniProt P50534).
T7 sequence: T1 sequence with H14A
Described as above.

The target of experiment [9] is T8, GST-tagged MSL2^618–655 L633A;V634A;E639A;Y643A (Drosophila melanogaster) (UniProt P50534).
T8 sequence: T1 sequence with L16A, V17A, E22A, Y26A
The experiment is described as above.

Experiment [10] addresses T9, GST-tagged MSL2^618–655 E639A (Drosophila melanogaster) (UniProt P50534).
T9 sequence: T1 sequence with E22A
The description is as above.

Numbering of substitutions follows the chain as printed. Names and notes keep the numbering of the source. No constants are given. Whether binding was seen depends on the method and setting. For some of these results: Binding seen in cells or lysates may run through a third protein. Some binding calls cover weakened binding; strength is not graded here. For some of these results: Sequences can lack the tags named with a protein.

B1: CLAMP^41–153 L139A/K146E (domain or fragment, UniProt Q9V9N4 41-153)
chain: TEQQPTFYYTTNGNGGTVNLAQLATTDDNKTCYIAQPVGGYNYALVNGMPLNQGAALGIATVDAQGRIQIVNQNKPIAANTISNISFKCDVCSDMFPHAALLNAHERMHTDGE
Turning to B1, the binding result in experiment [1] was “no binding”.

B2: CLAMP^40–153 (domain or fragment, UniProt Q9V9N4 40-153)
chain: T2 sequence (looked up)
In the case of B2, the binding result with CLAMP^40–153 [2] was “no binding”.

B3: MSL2^618–655 (domain or fragment, Drosophila melanogaster, UniProt P50534 618-655, looked up)
chain: T1 sequence
notes: Unlabelled or 13C,15N-labelled for NMR; Tags and their cleavage are told only in the Supplementary Information; also called MSL2 peptide; source: E. coli BL21 (DE3), purified (IMAC, anion-exchange chromatography)
B3: the binding entry in the experiment with CLAMP^40–153 [3] was “binds weakly”.

B4: 6xHis-thioredoxin-tagged CLAMP^1–153 K146E (domain or fragment, UniProt Q9V9N4 1-153)
chain: MEDLTKNIIFTNAINGQPATIQYQTADGTILKQPKIEGQKTEQQPTFYYTTNGNGGTVNLAQLATTDDNKTCYIAQPVGGYNYALVNGMPLNQGAALGIATVDAQGRIQIVNQNKPIAANTISNISFKCDVCSDMFPHLALLNAHERMHTDGE
Regarding B4, the binding entry in experiment [4] is on record as “binds”.

B5: 6xHis-thioredoxin-tagged CLAMP^1–153 I122A (domain or fragment, UniProt Q9V9N4 1-153)
chain: B4 chain with I122A, E146K
For B5, the binding entry in experiment [4] is given as “binds”.

B6: 6xHis-thioredoxin-tagged CLAMP^1–153 H138A (domain or fragment, UniProt Q9V9N4 1-153)
chain: B4 chain with H138A, E146K
For B6, the binding result in experiment [4] was “binds”.

B7: CLAMP^1–153 H138A (GAL4 fusion, yeast two-hybrid) (domain or fragment, UniProt Q9V9N4 1-153)
chain: B4 chain with H138A, E146K
Turning to B7, the binding entry in experiment [5] is “binds”.

B8: 6xHis-thioredoxin-tagged CLAMP^1–153 R147E (domain or fragment, UniProt Q9V9N4 1-153)
chain: B4 chain with E146K, R147E
Take B8: the binding entry in experiment [4] is “binds”.

B9: CLAMP^1–153 (GAL4 fusion, yeast two-hybrid) (domain or fragment, UniProt Q9V9N4 1-153)
chain: B4 chain with E146K
For B9, the binding entry in [5] and in experiment [6] was “binds” throughout.

B10: CLAMP^1–153 N143A (GAL4 fusion, yeast two-hybrid) (domain or fragment, UniProt Q9V9N4 1-153)
chain: B4 chain with N143A, E146K
For B10, the binding result in experiment [5] is “binds”.

B11: CLAMP^1–153 R147E (GAL4 fusion, yeast two-hybrid) (domain or fragment, UniProt Q9V9N4 1-153)
chain: B4 chain with E146K, R147E
For B11, the binding entry in experiment [5] is recorded as “binds”.

B12: 6xHis-thioredoxin-tagged CLAMP^1–153 N143A (domain or fragment, UniProt Q9V9N4 1-153)
chain: B4 chain with N143A, E146K
Regarding B12, the binding result in [4] is on record as “binds”.

B13: 6xHis-thioredoxin-tagged CLAMP^1–153 L141A (domain or fragment, UniProt Q9V9N4 1-153)
chain: B4 chain with L141A, E146K
On to B13, for which, in experiment [4], the binding result is given as “binds”.

B14: CLAMP^1–153 I122A (GAL4 fusion, yeast two-hybrid) (domain or fragment, UniProt Q9V9N4 1-153)
chain: B4 chain with I122A, E146K
For the molecule B14, in experiment [5], the binding result is “binds”.

B15: 6xHis-thioredoxin-tagged CLAMP^1–153 (domain or fragment, UniProt Q9V9N4 1-153)
chain: B4 chain with E146K
Turning to B15, the binding result in [4] is “binds”; in experiment [7] it was “binds”; in [8] it was “binds”; in experiment [9], “binds weakly”; in experiment [10] it was “binds”.

B16: CLAMP^1–153 L141A (GAL4 fusion, yeast two-hybrid) (domain or fragment, UniProt Q9V9N4 1-153)
chain: B4 chain with L141A, E146K
On to B16, for which the binding result in experiment [5] is “binds”.

B17: 6xHis-thioredoxin-tagged CLAMP^1–153 L139A (domain or fragment, UniProt Q9V9N4 1-153)
chain: B4 chain with L139A, E146K
Turning to B17, the binding result in experiment [4] is given as “binds”.
